These results are taken from publication PMC10038804.

Amino acid sequences for entries named in this document (tags omitted).
UniProt O00327: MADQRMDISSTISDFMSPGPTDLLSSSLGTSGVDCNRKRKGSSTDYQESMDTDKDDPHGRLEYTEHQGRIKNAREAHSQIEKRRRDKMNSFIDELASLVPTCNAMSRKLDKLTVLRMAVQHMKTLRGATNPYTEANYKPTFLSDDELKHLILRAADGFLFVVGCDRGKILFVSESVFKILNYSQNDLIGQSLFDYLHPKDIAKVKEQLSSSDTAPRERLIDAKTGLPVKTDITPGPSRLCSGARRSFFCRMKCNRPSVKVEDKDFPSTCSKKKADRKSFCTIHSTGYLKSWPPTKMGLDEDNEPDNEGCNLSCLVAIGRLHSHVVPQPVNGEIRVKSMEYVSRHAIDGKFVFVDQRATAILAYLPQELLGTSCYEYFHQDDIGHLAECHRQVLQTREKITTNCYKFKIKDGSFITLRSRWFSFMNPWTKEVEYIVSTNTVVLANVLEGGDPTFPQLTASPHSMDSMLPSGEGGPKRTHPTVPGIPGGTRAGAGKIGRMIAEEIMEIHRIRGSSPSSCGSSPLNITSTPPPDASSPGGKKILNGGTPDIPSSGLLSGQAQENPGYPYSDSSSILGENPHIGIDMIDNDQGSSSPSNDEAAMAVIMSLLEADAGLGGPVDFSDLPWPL

These are yes or no findings as the source states them, for the method shown. Binding seen in cells or lysates may run through a third protein. Some entries that bind do so weakly or less than the wild type.

The test concerns the target Flag-Wild type BMAL1 (human (cDNA from MRC5 mRNA)) (UniProt O00327). The test can be described thus: co-IP; lysates of HEK293T cells overexpressing Flag-BMAL1 (WT or S183A), treated with Zeocin or DMSO/control; precipitated with anti-Flag beads; immunoblot. (In general: A western blot detects proteins with antibodies after separation by electrophoresis.)

B1: CLOCK (protein, UniProt O15516 1-846)
chain: MLFTVSCSKMSSIVDRDDSSIFDGLVEEDDKDKAKRVSRNKSEKKRRDQFNVLIKELGSMLPGNARKMDKSTVLQKSIDFLRKHKEITAQSDASEIRQDWKPTFLSNEEFTQLMLEALDGFFLAIMTDGSIIYVSESVTSLLEHLPSDLVDQSIFNFIPEGEHSEVYKILSTHLLESDSLTPEYLKSKNQLEFCCHMLRGTIDPKEPSTYEYVKFIGNFKSLNSVSSSAHNGFEGTIQRTHRPSYEDRVCFVATVRLATPQFIKEMCTVEEPNEEFTSRHSLEWKFLFLDHRAPPIIGYLPFEVLGTSGYDYYHVDDLENLAKCHEHLMQYGKGKSCYYRFLTKGQQWIWLQTHYYITYHQWNSRPEFIVCTHTVVSYAEVRAERRRELGIEESLPETAADKSQDSGSDNRINTVSLKEALERFDHSPTPSASSRSSRKSSHTAVSDPSSTPTKIPTDTSTPPRQHLPAHEKMVQRRSSFSSQSINSQSVGSSLTQPVMSQATNLPIPQGMSQFQFSAQLGAMQHLKDQLEQRTRMIEANIHRQQEELRKIQEQLQMVHGQGLQMFLQQSNPGLNFGSVQLSSGNSSNIQQLAPINMQGQVVPTNQIQSGMNTGHIGTTQHMIQQQTLQSTSTQSQQNVLSGHSQQTSLPSQTQSTLTAPLYNTMVISQPAAGSMVQIPSSMPQNSTQSAAVTTFTQDRQIRFSQGQQLVTKLVTAPVACGAVMVPSTMLMGQVVTAYPTFATQQQQSQTLSVTQQQQQQSSQEQQLTSVQQPSQAQLTQPPQQFLQTSRLLHGNPSTQLILSAAFPLQQSTFPQSHHQQHQSQQQQQLSRHRTDSLPDPSKVQPQ
In the case of B1, the binding entry is on record as “binds”.
